Reference: paper PMC7269675

Protein sequences, listed by entry. Tags and fused reporters are not part of them. Residues count along the entry.
UniProt P09102, residues 23-515: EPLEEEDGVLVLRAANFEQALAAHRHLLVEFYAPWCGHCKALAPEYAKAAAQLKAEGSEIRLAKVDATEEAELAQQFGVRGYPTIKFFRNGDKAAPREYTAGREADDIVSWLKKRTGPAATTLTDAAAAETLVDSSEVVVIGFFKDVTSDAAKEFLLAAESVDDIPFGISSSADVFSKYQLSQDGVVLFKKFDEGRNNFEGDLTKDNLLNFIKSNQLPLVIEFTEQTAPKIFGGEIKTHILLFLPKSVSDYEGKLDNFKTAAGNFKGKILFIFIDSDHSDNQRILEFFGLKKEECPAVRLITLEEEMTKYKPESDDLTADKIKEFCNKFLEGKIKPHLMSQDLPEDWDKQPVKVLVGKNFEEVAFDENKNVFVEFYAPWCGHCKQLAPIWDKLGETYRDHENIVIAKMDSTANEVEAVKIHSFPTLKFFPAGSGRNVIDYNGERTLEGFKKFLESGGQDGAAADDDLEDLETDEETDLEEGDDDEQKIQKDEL

Molecular target: T1, peanut agglutinin (peanut) (UniProt P02872)
T1 sequence (chain, bound to agarose): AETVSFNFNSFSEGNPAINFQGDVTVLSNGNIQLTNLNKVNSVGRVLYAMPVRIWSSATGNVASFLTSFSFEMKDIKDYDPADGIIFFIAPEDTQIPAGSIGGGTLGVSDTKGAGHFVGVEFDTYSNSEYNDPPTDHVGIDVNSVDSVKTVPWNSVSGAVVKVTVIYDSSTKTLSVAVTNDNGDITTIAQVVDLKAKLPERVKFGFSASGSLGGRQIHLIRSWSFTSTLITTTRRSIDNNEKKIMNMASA
Assay: affinity purification with mass spectrometry; 400 chick embryo trunks fractionated on agarose-bound PNA; column eluted with 0.5M NaCl, 1% CHAPS, 100 mM Tris-HCl pH 7.5, then with 0.4M lactose/2% CHAPS in PBS; 57 kDa silver-stained band excised, tryptic digestion and mass spectrometry; only the target purified

binding: binds
Substance: somite cell surface protein disulphide isomerase (chicken PDIA1/P4HB) (from UniProt P09102 23-515) (enzyme)

These are yes or no findings as the source states them, for the method shown. In cells and extracts the contact can be indirect. Here binding means that the protein was enriched with, or labelled near, the bait; the list need not be complete.
